Assay results: the supplement of paper PMC12067093, “Discovery and optimisation of a covalent ligand for TRIM25 and its application to targeted protein ubiquitination” (Chemical Science, 2025)
This is one part of the list.

Chains of the proteins cited; added tags and fusions are not shown. Lines headed by an entry give the natural chain unless they say otherwise; changes in a name come on top.
UniProt Q13315: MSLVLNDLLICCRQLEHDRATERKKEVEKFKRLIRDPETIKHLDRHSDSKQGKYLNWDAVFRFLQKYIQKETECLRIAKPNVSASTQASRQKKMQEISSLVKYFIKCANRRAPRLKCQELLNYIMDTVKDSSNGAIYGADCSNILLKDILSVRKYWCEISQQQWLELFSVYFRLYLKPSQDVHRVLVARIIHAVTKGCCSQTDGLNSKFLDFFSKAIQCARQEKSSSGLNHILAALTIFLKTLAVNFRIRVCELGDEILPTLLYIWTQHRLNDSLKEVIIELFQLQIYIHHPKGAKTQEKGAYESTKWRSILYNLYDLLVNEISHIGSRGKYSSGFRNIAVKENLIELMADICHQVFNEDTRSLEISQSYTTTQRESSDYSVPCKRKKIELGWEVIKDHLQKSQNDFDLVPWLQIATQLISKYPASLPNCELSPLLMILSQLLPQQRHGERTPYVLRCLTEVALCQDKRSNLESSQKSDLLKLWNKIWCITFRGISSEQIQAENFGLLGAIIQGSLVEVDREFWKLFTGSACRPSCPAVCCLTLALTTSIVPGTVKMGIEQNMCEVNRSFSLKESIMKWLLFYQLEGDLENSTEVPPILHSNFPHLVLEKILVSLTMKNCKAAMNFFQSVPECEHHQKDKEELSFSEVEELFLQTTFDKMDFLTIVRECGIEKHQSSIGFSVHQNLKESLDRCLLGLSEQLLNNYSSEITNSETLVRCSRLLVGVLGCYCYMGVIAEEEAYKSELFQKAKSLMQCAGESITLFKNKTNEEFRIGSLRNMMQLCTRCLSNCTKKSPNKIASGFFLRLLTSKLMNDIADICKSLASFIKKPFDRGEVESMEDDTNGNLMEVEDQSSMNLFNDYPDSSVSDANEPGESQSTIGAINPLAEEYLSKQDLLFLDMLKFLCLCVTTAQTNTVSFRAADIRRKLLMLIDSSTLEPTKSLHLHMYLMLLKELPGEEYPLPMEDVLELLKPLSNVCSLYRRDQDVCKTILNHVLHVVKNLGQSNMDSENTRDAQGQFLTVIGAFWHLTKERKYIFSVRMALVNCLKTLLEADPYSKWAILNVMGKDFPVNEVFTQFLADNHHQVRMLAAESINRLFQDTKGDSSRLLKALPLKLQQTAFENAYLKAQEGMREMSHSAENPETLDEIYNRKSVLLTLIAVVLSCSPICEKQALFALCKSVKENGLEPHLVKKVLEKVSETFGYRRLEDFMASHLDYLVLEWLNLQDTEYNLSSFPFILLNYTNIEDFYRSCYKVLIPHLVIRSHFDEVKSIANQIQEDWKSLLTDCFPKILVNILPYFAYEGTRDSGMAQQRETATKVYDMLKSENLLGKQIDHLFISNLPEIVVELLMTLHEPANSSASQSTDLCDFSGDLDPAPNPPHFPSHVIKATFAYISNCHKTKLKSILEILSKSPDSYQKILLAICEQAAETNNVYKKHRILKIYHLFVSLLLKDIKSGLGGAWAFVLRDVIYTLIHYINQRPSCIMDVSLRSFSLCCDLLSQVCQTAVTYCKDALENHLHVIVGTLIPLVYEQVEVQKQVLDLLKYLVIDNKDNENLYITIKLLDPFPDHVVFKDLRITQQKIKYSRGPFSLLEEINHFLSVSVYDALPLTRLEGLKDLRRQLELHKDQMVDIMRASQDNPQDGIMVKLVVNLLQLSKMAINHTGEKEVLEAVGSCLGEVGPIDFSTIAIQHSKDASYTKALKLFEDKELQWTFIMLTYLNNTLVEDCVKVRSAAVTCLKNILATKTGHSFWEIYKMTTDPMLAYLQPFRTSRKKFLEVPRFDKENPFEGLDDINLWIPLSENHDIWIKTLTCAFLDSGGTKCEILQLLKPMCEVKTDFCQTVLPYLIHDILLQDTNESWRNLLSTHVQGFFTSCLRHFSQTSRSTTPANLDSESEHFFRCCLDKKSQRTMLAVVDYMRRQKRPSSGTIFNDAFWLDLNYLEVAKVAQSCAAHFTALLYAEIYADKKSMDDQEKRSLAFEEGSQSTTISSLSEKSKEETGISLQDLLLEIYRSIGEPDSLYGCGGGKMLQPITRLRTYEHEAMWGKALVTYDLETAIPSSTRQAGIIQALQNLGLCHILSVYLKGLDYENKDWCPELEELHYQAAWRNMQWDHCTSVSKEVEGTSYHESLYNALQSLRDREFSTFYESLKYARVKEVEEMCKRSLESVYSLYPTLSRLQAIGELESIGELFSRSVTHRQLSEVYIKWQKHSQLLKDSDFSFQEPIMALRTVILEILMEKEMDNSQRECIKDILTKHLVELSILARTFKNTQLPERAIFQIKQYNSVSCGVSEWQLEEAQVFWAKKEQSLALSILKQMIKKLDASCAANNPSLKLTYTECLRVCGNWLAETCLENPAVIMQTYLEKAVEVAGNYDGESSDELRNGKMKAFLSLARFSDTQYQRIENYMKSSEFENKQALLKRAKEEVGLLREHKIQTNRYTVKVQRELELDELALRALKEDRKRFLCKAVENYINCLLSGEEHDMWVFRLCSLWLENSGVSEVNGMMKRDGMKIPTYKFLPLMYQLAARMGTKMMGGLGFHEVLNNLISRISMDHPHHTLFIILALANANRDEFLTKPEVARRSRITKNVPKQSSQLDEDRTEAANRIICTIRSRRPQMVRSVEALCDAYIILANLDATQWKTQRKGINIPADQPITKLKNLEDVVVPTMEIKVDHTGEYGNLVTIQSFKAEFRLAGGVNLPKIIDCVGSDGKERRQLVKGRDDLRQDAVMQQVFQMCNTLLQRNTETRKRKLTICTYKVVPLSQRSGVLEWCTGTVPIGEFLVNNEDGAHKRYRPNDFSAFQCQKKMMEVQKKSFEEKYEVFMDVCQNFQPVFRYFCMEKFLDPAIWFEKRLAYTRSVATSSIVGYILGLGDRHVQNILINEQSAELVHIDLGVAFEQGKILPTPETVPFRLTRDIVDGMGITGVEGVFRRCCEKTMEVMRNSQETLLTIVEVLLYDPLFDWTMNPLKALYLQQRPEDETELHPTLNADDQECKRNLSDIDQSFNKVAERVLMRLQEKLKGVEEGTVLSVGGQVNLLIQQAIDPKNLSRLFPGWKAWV
UniProt O75348, whole entry, looked up: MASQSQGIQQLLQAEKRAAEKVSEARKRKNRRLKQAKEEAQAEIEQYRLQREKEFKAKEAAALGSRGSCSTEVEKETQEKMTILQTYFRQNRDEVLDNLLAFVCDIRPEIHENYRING
UniProt Q12797: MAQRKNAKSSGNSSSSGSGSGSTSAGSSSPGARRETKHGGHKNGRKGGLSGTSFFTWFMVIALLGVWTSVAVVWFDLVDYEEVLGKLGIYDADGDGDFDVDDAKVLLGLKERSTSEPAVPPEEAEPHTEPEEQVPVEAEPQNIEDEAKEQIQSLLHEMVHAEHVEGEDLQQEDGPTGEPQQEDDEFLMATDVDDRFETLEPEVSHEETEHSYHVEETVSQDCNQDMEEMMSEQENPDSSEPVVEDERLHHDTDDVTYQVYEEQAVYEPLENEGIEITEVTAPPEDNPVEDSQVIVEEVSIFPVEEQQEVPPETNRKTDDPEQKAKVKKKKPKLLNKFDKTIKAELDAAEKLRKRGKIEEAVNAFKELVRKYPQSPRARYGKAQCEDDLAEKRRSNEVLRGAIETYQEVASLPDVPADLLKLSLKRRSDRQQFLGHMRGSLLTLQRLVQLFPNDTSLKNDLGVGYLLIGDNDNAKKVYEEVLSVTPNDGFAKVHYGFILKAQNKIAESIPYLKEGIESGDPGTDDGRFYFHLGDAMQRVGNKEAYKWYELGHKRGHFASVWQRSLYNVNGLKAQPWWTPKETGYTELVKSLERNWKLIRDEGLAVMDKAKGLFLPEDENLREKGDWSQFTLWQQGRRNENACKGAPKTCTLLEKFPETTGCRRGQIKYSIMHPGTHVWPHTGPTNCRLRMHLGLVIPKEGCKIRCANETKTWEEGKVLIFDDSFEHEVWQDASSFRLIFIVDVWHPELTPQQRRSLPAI
UniProt P38606, whole entry, looked up: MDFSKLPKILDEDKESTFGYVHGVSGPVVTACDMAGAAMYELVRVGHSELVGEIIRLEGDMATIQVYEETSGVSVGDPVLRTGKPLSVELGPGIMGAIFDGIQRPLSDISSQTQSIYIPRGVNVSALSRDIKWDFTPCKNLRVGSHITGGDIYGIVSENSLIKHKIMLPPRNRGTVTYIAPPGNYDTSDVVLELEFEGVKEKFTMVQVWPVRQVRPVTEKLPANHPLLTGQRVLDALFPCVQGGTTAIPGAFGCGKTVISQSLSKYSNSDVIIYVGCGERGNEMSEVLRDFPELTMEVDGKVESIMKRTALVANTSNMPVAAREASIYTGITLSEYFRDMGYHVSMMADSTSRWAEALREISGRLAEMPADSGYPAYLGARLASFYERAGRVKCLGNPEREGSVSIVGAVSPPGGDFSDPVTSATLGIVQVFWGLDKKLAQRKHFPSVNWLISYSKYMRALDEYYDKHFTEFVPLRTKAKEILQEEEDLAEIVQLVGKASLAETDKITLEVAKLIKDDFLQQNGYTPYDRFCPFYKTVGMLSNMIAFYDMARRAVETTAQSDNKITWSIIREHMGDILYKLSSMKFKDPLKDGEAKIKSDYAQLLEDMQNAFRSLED
UniProt Q9UBL3, whole entry, looked up: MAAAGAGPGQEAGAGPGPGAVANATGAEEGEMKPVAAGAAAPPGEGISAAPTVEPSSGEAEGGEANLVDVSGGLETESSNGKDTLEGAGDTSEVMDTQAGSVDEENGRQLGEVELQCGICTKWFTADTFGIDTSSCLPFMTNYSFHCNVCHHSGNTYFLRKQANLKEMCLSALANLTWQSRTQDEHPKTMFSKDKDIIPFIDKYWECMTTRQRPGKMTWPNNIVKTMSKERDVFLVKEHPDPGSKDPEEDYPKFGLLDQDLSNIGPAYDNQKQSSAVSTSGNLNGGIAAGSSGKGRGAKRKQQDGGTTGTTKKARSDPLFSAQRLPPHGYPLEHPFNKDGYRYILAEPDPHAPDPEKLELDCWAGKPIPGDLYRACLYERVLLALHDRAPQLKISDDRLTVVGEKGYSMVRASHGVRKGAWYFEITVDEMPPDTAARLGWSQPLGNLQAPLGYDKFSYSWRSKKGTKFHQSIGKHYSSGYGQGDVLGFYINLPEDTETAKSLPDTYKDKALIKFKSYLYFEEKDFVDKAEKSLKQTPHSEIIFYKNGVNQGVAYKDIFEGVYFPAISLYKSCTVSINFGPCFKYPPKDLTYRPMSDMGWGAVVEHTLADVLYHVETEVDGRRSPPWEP
UniProt Q93050, whole entry, looked up: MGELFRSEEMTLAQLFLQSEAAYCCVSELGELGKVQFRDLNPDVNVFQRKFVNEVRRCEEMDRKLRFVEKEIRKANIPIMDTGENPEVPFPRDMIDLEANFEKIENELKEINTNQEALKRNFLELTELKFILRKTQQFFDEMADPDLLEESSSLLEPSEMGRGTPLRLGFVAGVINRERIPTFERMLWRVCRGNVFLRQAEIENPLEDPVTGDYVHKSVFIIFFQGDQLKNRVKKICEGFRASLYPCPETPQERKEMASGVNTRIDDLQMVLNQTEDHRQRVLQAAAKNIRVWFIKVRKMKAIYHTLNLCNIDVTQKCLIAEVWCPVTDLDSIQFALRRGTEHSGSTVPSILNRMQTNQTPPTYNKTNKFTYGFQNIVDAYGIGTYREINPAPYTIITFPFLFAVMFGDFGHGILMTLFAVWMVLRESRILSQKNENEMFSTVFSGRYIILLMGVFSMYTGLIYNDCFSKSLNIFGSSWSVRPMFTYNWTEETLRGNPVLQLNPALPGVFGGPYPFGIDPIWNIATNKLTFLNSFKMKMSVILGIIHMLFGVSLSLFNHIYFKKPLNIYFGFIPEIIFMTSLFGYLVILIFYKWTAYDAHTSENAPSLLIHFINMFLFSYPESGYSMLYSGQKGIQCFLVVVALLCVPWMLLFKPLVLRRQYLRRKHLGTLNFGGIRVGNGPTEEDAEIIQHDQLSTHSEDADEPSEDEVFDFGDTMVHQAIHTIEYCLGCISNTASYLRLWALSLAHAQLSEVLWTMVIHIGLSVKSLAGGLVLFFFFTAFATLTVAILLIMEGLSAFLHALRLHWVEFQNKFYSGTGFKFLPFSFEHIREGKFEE
UniProt P25705: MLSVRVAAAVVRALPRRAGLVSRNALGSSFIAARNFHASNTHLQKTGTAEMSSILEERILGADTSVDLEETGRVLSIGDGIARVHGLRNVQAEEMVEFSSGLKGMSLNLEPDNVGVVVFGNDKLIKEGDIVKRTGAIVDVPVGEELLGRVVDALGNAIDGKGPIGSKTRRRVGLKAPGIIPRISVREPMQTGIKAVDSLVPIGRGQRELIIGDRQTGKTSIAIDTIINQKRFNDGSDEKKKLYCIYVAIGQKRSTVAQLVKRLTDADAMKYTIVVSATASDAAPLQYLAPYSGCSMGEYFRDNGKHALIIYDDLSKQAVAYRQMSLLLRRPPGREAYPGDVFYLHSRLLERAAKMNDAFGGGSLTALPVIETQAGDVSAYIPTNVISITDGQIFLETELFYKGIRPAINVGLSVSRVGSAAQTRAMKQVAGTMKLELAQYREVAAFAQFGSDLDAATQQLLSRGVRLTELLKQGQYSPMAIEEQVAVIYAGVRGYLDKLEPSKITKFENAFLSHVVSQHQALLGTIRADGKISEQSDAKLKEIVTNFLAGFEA

Compound: Cc1cc(ccc1-c1ccccc1)C(=O)N1CCCN(CC1)C(=O)CCl [compound 10]
Experiment: probe-labelled cysteine peptide fold change vs DMSO (competition) (log2 fold change); higher = less target engagement (more negative = stronger competition)
Settings: THP-1, incubation time: 4 h
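Note: competitive profiling in live THP-1 cells: cysteine peptides tagged with an iodoacetamide desthiobiotin (IA-DTB) probe, intensity after compound treatment relative to DMSO-treated cells.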

Row | Target | probe-labelled cysteine peptide fold change (10 µM) | probe-labelled cysteine peptide fold change (50 µM)
1 | ATF2_P15336_79_NCEEVGLFNELASPFENEFK (UniProt P15336) | 0.0486 | -0.425
2 | ASMTL_O95671_305_GLLTACK (UniProt O95671) | -0.0702 | -0.148
3 | ATM_Q13315_1821_CEILQLLK (UniProt Q13315) | -0.358 | -0.124
4 | ATP6V1G1_O75348_104_DEVLDNLLAFVCDIRPEIHENYR (UniProt O75348) | 0.269 | 0.435
5 | ASNS_P08243_43+44_FENVNGYTNCCFGFHR (UniProt P08243) | 0.0396 | -0.187
6 | ATAD2_Q6PL18_649_SICAEAALCALR (UniProt Q6PL18) | -0.0977 | 0.142
7 | ASPH_Q12797_685_YSIMHPGTHVWPHTGPTNCR (UniProt Q12797) | -0.223 | -0.291
8 | ATP8B2_P98198_426_CSINGHSYGDVFDVLGHK (UniProt P98198) | 0.32 | 0.371
9 | ATP6V1A_P38606_532_FCPFYK (UniProt P38606) | -0.116 | 0.0728
10 | ASPH_Q12797_384_AQCEDDLAEK (UniProt Q12797) | 0.169 | 0.0426
11 | ASPSCR1_Q9BZE9_40_VTPSTVLLQVLEDTCR (UniProt Q9BZE9) | 0.112 | 0.134
12 | ATM_Q13315_2801_YRPNDFSAFQCQK (UniProt Q13315) | -0.0922 | -0.0782
13 | ATP2B1_P20020_547_TECALLGLLLDLKR (UniProt P20020) | -0.138 | -0.507
14 | ATG9A_Q7Z3C6_331_CWSLYGR (UniProt Q7Z3C6) | -0.152 | -0.424
15 | ATM_Q13315_564_MGIEQNMCEVNR (UniProt Q13315) | -0.329 | -0.677
16 | ATIC_P31939_325_MSSFGDFVALSDVCDVPTAK (UniProt P31939) | -0.0848 | 0.0795
17 | ATP6V1B2_P21281_425_DHADVSNQLYACYAIGK (UniProt P21281) | 0.162 | 0.207
18 | ATP13A1_Q9HD20_574_ALASCHSLMQLDDGTLVGDPLEK (UniProt Q9HD20) | 0.341 | 0.204
19 | ATRAID_Q6UW56_52_VAFYCK (UniProt Q6UW56) | 0.000745 | 0.172
20 | ASCC3_Q8N3C0_208_FLNEHLQEACTPELKPVEK (UniProt Q8N3C0) | -0.196 | -0.22
21 | ATOX1_O00244_41_KVCIESEHSMDTLLATLKK (UniProt O00244) | 0.623 | -0.15

Row | Target | probe-labelled cysteine peptide fold change (10 µM) | probe-labelled cysteine peptide fold change (50 µM)
22 | ATAD2_Q6PL18_463_GCLFYGPPGTGK (UniProt Q6PL18) | -0.0361 | 0.111
23 | ATP5F1C_P36542_103_GLCGAIHSSIAK (UniProt P36542) | 0.0596 | -0.117
24 | ATM_Q13315_1396_ATFAYISNCHK (UniProt Q13315) | -1.94 | -2.52
25 | ASAP1_Q9ULH1_373_LNLLTCQVKPNAEDKK (UniProt Q9ULH1) | 0.118 | -0.248
26 | ATN1_P54259_851_APVECPSLGPVPHRPPFEPGSAVATVPPYLGPDTPALR (UniProt P54259) | -0.143 | -0.422
27 | ATG4B_Q9Y4P1_323_MSIAELDPSIAVGFFCK (UniProt Q9Y4P1) | 0.15 | -0.0742
28 | ASB1_Q9Y576_36_EQFCDHPLEHCEDTR (UniProt Q9Y576) | -0.348 | -0.0192
29 | ATP6V1H_Q9UI12_47_VNWQSYLQGQMISAEDCEFIQR (UniProt Q9UI12) | 0.306 | 0.143
30 | ATRX_P46100_1026_MEQQYESSSDGTEKLPEREEICHFPK (UniProt P46100) | -0.0121 | -0.627
31 | ATP6V1G1_O75348_69_GSCSTEVEK (UniProt O75348) | -0.212 | -0.663
32 | ASMTL_O95671_333_VDASACGMER (UniProt O95671) | -0.0682 | -0.332
33 | ASH2L_Q9UBL3_581_SCTVSINFGPCFK (UniProt Q9UBL3) | -0.0421 | 0.0485
34 | ATP13A1_Q9HD20_969+971_LSSIQCICHVIK (UniProt Q9HD20) | 0.206 | -0.0931
35 | ATP5PO_P48047_141_GEVPCTVTSASPLEEATLSELK (UniProt P48047) | 0.0624 | 0.273
36 | ATP6V0D1_P61421_244_LFPHCGR (UniProt P61421) | -0.0884 | 0.11
37 | ATL3_Q6DD88_262_NHIHSCFSDVTCFLLPHPGLQVATSPDFDGK (UniProt Q6DD88) | 0.158 | 0.0827
38 | ATP13A1_Q9HD20_971_LSSIQCICHVIK (UniProt Q9HD20) | -0.129 | -0.0512
39 | ATG5_Q9H1Y0_115_DLLHCPSK (UniProt Q9H1Y0) | -0.167 | -0.0605
40 | ATP6V1A_P38606_240_VLDALFPCVQGGTTAIPGAFGCGK (UniProt P38606) | 0.0882 | -0.0453
41 | ATM_Q13315_2753_KLTICTYK (UniProt Q13315) | -0.14 | -0.192
42 | ATP2A3_Q93084_498_SMSVYCTPTRPHPTGQGSK (UniProt Q93084) | 0.115 | -0.0619

Row | Target | probe-labelled cysteine peptide fold change (10 µM) | probe-labelled cysteine peptide fold change (50 µM)
43 | ASPSCR1_Q9BZE9_127+138_ECLQHPGGATPVCVYTR (UniProt Q9BZE9) | -0.0868 | -0.296
44 | ATM_Q13315_2323_KLDASCAANNPSLK (UniProt Q13315) | -0.12 | -0.242
45 | ATRX_P46100_1531_CPITTK (UniProt P46100) | -0.402 | -1.05
46 | ASH2L_Q9UBL3_362_LELDCWAGKPIPGDLYR (UniProt Q9UBL3) | -0.104 | 0.0484
47 | ATP5S_Q99766_134_CHYIEDDCLLR (UniProt Q99766) | 0.0401 | 0.00322
48 | ATP6V0A1_Q93050_58_CEEMDRK (UniProt Q93050) | 0.00118 | 0.055
49 | ATRX_P46100_1814_AHILYEMLAGCVQR (UniProt P46100) | 0.0558 | 0.123
50 | ATAD1_Q8NBU5_229_AQFMSLWDGLDTDHSCQVIVMGATNRPQDLDSAIMR (UniProt Q8NBU5) | 0.117 | 0.088
51 | ATM_Q13315_2770_SGVLEWCTGTVPIGEFLVNNEDGAHKR (UniProt Q13315) | 0.0886 | -0.152
52 | ATM_Q13315_1495_SFSLCCDLLSQVCQTAVTYCK (UniProt Q13315) | 0.0614 | -0.0028
53 | ATP9B_O43861_551_AIVLCHNVTPVYESR (UniProt O43861) | -0.147 | -0.264
54 | ATP13A1_Q9HD20_667_GAPETLHSMFSQCPPDYHHIHTEISR (UniProt Q9HD20) | -0.00203 | 0.055
55 | ATM_Q13315_2112_NMQWDHCTSVSK (UniProt Q13315) | -0.249 | -0.607
56 | ATP5F1A_P25705_244_LYCIYVAIGQK (UniProt P25705) | -0.468 | 0.438
57 | ATF7IP_Q6VMQ6_955_AADSTSQCGK (UniProt Q6VMQ6) | 0.014 | -0.102
58 | ATL2_Q8NHH9_441_MGGDEFCR (UniProt Q8NHH9) | 0.177 | 0.222
59 | ATOX1_O00244_41_VCIESEHSMDTLLATLK (UniProt O00244) | 0.31 | 0.0516
60 | ATP2B1_P20020_463_HLDACETMGNATAICSDK (UniProt P20020) | 0.0417 | 0.0416
61 | ATP6V1H_Q9UI12_226_FAWVEADGVNCIMGVLSNK (UniProt Q9UI12) | 0.158 | 0.427
62 | ATP1A1_P05023_211_IISANGCK (UniProt P05023) | -0.646 | -0.287
63 | ARRB2_P32121_126_LGQHAHPFFFTIPQNLPCSVTLQPGPEDTGK (UniProt P32121) | -0.00989 | -0.017

Row | Target | probe-labelled cysteine peptide fold change (10 µM) | probe-labelled cysteine peptide fold change (50 µM)
64 | ASPH_Q12797_660_FPETTGCR (UniProt Q12797) | -0.16 | -0.00818
65 | ATP5F1A_P25705_244_KLYCIYVAIGQK (UniProt P25705) | -1.08 | 0.236
66 | ASPSCR1_Q9BZE9_127_ECLQHPGGATPVCVYTR (UniProt Q9BZE9) | 0.0894 | 0.0335
67 | ATP6V1A_P38606_240+254_VLDALFPCVQGGTTAIPGAFGCGK (UniProt P38606) | 0.143 | -0.0323
68 | ATP1A1_P05023_518_CSSILLHGK (UniProt P05023) | -0.0171 | -0.0166
69 | ATP6V1H_Q9UI12_85_TFINLMTHICK (UniProt Q9UI12) | 0.139 | -0.26
70 | ATP11C_Q8NB49_214_AAIECEQPQPDLYK (UniProt Q8NB49) | -0.0919 | 0.0245
71 | ATG7_O95352_298_LPEMAFSPDCPK (UniProt O95352) | -0.204 | -0.0664
72 | ATOX1_O00244_41_KVCIESEHSMDTLLATLK (UniProt O00244) | 0.317 | -0.11
73 | ATXN10_Q9UBB4_134_CGLQFLGNIASR (UniProt Q9UBB4) | 0.169 | 0.631
74 | ARRB2_P32121_126_KLGQHAHPFFFTIPQNLPCSVTLQPGPEDTGK (UniProt P32121) | -0.12 | -0.146
75 | ASH1L_Q9NR48_157_KADDVAAIECQSEEVIR (UniProt Q9NR48) | -0.535 | -0.127
76 | ATP6V0A2_Q9Y487_330_CLIAEVWCPEADLQDLRR (UniProt Q9Y487) | -0.0967 | -0.0893
77 | ATF7IP_Q6VMQ6_1228_ALPLPMACTLTQFVSGSK (UniProt Q6VMQ6) | 0.114 | 0.118
78 | ATP2A2_P16615_377_MFILDRVEGDTCSLNEFTITGSTYAPIGEVHK (UniProt P16615) | 0.0891 | 0.248
79 | ATP6V0A1_Q93050_310_AIYHTLNLCNIDVTQK (UniProt Q93050) | 0.0069 | 0.378
80 | ATM_Q13315_2991_ALYLQQRPEDETELHPTLNADDQECK (UniProt Q13315) | -0.396 | -0.796
81 | ATAD2B_Q9ULI0_53_AASCPAAK (UniProt Q9ULI0) | -0.0086 | -0.45
82 | ATP13A1_Q9HD20_969_LSSIQCICHVIK (UniProt Q9HD20) | -0.0153 | -0.325
83 | ATP2B1_P20020_473_HLDACETMGNATAICSDK (UniProt P20020) | -0.157 | -0.163
